From PMC9280087
Results are given in words; binding and its absence hold for the method and conditions named. In cells and extracts the contact can be indirect. Some binding calls cover weakened binding; strength is not graded here.

Protein sequences, listed by entry. Tags and fused reporters are not part of them.
UniProt P46940: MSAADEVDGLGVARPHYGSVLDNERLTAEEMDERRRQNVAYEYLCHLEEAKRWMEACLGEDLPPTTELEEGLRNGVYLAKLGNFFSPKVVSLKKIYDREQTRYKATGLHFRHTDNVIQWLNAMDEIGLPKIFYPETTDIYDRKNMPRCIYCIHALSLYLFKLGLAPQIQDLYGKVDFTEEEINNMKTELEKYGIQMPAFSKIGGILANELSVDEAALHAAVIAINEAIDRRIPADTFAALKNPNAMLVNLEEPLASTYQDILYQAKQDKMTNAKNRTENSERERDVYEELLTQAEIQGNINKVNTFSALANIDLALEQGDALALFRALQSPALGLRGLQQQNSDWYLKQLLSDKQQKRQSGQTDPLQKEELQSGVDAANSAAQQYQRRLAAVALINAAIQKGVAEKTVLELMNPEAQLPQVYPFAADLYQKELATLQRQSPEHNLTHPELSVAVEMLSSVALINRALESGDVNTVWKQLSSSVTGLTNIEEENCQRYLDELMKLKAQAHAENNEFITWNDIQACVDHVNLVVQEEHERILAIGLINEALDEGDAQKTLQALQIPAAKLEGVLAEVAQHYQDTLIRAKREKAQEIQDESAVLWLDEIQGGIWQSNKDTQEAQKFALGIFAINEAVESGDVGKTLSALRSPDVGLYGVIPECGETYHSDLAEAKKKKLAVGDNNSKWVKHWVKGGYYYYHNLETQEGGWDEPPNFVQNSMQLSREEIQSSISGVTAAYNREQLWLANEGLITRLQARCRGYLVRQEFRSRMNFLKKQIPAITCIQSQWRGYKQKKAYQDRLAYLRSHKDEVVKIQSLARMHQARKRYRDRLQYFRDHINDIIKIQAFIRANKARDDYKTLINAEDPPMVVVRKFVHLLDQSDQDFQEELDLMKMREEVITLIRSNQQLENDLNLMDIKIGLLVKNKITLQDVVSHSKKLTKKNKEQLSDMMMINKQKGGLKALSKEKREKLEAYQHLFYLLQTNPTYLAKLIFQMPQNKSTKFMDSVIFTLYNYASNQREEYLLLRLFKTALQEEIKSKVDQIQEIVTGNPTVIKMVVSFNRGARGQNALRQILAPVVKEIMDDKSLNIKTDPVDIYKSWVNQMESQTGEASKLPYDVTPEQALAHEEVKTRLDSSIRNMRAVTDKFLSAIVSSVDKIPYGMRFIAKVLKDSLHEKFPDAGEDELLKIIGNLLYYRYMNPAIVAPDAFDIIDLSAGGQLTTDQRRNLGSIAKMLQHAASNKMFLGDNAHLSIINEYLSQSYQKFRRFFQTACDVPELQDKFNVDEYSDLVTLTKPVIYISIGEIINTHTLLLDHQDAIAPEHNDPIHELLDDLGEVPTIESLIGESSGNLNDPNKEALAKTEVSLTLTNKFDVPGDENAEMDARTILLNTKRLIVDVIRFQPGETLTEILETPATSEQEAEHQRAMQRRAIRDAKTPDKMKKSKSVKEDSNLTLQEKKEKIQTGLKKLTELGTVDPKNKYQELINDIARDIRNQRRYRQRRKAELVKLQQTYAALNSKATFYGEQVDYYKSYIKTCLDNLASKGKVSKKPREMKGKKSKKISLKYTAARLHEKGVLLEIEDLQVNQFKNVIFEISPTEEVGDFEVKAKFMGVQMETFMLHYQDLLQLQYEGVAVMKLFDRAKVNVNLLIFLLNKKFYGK
UniProt P35222: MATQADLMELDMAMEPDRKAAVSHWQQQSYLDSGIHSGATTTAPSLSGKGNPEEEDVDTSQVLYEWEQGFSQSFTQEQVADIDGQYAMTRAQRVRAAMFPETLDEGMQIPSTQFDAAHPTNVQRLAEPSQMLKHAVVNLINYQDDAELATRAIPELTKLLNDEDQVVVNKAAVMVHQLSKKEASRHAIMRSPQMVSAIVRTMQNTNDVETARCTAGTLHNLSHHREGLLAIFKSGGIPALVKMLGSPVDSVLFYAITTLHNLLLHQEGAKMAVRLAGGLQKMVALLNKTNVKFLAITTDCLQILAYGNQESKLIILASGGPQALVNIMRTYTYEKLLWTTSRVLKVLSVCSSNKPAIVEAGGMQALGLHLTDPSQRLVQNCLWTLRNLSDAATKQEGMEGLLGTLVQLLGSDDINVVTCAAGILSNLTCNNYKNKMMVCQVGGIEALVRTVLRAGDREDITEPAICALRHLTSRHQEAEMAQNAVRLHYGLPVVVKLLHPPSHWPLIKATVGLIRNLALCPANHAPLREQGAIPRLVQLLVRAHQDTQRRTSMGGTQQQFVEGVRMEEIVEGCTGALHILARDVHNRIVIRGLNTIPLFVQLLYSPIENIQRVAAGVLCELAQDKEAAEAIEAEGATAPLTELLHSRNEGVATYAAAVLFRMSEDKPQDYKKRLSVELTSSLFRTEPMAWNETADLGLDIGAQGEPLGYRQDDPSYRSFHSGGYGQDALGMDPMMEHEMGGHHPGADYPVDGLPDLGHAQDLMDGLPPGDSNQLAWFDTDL

Target: IQ-GTPase-activating protein 1 (human (endogenous in A549)) (UniProt P46940)
Experiment: co-IP; A549 cell lysates (cells infected with WT or ΔompA A. baumannii, or transfected with pCMV-ompA) incubated with rabbit IgG or primary antibodies overnight at 4°C, protein A magnetic beads; Western blot; ratios of co-precipitated to precipitated protein quantified

## β-catenin (from UniProt P35222 1-781)
  binding: binds
